The data set in a line: general procedure: Fmoc solid-phase peptide synthesis; 2-chlorotrityl resin; HBTU/DIPEA. Particulars: whole synthesis, scale 0.086 mmol.

In turn, “(2S)-2-({[(2S)-1,5-bis(tert-butoxy)-1,5-dioxopentan-2-yl]carbamoyl}amino)-6-[(2R)-3-(naphthalen-2-yl)-2-{[(1r,4r)-4-{[(2S)-2-[(4R)-5-(tert-butoxy)-4-{4-[2-(tert-butoxy)-2-oxoethyl]-7-({6-[(tertbutoxy)carbonyl]pyridin-2-yl}methyl)-1,4,7-triazonan-1-yl}-5-oxopentanamido]-6-[4-(4-iodophenyl)butanamido]hexanamido]methyl}cyclohexyl]formamido}propanamido]hexanoic acid” displayed an isolated mass of 0.0085 g and an isolated yield of 6%.

The record behind these values is patent publication US20250222143A1 (The Research Foundation for the State University of New York, priority 2021, published 2025).
